Assay results: the supplement of paper PMC12067093, “Discovery and optimisation of a covalent ligand for TRIM25 and its application to targeted protein ubiquitination” (Chemical Science, 2025)
This is one part of the list.

Protein sequences, listed by entry. Tags and fused reporters are not part of them. Lines headed by an entry give the natural chain unless they say otherwise; changes in a name come on top.
UniProt Q7Z7K6: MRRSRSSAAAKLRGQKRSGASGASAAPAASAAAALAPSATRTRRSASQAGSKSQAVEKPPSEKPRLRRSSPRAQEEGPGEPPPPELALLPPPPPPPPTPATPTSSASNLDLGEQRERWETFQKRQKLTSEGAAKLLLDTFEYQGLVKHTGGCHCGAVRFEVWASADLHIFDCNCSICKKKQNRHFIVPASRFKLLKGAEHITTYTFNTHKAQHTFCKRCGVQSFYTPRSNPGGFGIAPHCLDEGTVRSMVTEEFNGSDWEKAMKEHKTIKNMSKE
UniProt P50991: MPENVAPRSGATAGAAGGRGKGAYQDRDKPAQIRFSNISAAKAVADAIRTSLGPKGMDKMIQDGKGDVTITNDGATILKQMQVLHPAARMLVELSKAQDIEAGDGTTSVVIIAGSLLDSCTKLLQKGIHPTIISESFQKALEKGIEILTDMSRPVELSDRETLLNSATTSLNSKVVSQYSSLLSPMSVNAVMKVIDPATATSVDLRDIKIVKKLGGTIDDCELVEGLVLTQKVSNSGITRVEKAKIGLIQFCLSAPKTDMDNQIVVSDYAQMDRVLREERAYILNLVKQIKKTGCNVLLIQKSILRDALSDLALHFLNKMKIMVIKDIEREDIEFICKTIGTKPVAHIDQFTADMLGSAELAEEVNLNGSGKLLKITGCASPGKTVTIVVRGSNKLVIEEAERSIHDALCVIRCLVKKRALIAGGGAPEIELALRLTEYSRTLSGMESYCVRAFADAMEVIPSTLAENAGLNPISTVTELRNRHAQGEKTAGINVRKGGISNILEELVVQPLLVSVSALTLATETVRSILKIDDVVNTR
UniProt P25942, whole entry, looked up: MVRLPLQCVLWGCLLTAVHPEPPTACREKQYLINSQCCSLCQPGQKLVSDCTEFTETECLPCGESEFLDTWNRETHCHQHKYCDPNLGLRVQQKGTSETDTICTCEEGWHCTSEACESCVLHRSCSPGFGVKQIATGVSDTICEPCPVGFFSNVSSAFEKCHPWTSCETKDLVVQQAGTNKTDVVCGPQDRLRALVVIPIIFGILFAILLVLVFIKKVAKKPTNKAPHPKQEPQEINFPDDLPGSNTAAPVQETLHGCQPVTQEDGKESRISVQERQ
UniProt Q9HC77: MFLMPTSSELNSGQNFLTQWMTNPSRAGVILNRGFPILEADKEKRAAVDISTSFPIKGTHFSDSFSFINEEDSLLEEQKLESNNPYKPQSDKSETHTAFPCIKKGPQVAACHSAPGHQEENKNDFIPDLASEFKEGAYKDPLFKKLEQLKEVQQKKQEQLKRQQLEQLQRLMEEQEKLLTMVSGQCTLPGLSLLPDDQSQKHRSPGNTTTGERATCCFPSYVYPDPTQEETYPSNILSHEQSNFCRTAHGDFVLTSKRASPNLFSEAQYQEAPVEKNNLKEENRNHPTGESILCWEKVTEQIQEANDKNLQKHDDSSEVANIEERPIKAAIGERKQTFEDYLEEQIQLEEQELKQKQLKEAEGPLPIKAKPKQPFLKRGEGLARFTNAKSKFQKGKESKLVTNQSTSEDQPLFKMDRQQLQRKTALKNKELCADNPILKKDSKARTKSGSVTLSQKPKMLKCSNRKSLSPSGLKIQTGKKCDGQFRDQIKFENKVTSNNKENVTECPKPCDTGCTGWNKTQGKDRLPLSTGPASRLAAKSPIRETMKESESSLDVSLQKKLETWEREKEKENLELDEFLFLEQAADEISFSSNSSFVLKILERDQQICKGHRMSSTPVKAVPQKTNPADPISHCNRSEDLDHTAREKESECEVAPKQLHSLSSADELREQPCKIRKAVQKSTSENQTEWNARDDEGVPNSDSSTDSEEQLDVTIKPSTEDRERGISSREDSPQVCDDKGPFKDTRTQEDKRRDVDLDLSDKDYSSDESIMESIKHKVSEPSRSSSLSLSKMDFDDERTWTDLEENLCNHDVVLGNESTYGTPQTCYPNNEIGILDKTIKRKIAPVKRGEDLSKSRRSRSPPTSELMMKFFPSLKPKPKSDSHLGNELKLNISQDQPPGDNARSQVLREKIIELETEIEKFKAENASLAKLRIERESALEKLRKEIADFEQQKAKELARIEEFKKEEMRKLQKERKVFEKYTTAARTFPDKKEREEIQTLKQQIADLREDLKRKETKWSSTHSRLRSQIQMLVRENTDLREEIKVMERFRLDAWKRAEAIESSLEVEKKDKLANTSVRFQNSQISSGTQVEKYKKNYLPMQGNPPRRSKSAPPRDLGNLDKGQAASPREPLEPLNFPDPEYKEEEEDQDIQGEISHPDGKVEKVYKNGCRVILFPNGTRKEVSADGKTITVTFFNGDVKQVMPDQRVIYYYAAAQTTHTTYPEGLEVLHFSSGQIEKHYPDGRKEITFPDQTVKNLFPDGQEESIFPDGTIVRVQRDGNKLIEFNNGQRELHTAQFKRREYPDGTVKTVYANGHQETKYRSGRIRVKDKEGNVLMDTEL
UniProt P49454: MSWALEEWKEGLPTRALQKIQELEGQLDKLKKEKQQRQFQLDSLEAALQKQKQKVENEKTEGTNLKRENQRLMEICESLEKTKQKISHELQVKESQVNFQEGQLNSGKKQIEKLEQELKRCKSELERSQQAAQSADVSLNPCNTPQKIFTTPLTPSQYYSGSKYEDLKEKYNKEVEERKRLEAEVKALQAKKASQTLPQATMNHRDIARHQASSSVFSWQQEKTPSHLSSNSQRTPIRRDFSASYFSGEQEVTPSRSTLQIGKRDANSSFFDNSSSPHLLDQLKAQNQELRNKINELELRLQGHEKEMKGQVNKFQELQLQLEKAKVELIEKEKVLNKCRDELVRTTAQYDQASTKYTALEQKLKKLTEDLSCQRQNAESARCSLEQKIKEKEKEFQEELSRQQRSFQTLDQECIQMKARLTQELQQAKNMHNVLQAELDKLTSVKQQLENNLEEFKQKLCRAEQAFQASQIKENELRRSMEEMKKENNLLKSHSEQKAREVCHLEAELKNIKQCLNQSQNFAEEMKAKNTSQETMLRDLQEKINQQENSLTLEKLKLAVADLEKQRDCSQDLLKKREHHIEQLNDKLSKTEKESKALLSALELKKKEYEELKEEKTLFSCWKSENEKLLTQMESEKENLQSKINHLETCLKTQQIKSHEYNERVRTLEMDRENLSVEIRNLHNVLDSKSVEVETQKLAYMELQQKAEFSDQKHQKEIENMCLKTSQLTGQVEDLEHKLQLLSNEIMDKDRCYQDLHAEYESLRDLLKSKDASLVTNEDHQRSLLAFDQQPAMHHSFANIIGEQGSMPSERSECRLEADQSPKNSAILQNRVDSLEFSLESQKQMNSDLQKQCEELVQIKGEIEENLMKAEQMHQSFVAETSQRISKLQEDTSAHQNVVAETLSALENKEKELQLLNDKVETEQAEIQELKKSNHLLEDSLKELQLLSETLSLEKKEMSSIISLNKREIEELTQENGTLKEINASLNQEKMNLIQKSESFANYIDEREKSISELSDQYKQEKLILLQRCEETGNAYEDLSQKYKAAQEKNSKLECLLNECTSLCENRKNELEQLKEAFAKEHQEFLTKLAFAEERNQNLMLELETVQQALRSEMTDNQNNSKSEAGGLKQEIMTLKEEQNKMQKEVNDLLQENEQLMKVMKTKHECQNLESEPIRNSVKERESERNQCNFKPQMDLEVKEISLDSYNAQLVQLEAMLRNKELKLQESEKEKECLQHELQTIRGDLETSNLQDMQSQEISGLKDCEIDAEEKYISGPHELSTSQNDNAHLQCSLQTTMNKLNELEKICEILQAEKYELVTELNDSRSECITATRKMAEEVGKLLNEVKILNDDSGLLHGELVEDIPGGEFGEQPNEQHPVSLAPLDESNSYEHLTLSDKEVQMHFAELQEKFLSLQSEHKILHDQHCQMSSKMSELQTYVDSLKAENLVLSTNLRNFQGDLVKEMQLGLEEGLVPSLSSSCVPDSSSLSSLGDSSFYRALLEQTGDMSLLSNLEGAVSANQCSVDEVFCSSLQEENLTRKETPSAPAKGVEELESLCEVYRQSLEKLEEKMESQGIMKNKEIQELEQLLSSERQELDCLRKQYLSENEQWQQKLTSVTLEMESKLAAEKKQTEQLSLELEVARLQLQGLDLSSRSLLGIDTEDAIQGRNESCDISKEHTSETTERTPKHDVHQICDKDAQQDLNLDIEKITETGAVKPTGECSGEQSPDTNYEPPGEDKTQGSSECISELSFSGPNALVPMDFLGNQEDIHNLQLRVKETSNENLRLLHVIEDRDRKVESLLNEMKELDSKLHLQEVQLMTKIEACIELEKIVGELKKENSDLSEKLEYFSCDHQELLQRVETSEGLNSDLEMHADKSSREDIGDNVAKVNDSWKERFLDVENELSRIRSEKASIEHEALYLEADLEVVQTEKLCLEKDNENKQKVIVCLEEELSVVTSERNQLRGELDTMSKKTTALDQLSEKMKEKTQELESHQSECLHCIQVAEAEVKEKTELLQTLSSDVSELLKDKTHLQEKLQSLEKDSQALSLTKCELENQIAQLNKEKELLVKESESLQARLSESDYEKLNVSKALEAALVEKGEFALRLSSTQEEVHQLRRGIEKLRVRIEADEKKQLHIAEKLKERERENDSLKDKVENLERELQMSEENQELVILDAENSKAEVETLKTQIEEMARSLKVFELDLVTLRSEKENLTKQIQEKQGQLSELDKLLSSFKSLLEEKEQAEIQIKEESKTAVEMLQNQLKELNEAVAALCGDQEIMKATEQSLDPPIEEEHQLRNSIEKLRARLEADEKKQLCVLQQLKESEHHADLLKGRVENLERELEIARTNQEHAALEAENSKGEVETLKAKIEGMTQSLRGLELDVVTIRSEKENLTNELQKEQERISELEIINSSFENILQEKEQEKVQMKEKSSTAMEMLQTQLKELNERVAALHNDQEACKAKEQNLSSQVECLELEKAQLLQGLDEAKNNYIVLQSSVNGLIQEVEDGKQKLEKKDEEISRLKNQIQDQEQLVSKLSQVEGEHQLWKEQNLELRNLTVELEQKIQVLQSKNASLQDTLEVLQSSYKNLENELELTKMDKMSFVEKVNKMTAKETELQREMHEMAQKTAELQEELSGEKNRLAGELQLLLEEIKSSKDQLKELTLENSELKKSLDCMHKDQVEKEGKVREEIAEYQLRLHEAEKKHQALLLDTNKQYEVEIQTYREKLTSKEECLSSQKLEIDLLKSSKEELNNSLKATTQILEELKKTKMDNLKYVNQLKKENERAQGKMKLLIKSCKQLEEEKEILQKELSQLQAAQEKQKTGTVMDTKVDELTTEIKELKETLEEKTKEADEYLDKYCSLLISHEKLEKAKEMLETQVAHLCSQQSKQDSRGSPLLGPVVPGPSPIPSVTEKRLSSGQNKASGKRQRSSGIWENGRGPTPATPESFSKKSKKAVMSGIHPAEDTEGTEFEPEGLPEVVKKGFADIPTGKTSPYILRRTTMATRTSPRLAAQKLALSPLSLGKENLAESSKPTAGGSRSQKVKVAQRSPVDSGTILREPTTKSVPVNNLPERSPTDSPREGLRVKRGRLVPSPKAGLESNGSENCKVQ
UniProt Q01850: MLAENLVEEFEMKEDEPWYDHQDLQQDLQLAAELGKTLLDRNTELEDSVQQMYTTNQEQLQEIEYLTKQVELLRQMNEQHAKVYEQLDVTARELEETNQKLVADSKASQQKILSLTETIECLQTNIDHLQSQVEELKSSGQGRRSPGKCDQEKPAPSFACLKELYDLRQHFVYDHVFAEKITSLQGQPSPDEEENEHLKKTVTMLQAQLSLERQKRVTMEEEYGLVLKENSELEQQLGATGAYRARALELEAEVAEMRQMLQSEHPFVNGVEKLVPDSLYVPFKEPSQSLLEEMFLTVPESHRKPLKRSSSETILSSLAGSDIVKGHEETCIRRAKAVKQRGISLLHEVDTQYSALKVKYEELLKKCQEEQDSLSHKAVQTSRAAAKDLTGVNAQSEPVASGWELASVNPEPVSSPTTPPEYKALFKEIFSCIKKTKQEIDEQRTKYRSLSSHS
UniProt O75419: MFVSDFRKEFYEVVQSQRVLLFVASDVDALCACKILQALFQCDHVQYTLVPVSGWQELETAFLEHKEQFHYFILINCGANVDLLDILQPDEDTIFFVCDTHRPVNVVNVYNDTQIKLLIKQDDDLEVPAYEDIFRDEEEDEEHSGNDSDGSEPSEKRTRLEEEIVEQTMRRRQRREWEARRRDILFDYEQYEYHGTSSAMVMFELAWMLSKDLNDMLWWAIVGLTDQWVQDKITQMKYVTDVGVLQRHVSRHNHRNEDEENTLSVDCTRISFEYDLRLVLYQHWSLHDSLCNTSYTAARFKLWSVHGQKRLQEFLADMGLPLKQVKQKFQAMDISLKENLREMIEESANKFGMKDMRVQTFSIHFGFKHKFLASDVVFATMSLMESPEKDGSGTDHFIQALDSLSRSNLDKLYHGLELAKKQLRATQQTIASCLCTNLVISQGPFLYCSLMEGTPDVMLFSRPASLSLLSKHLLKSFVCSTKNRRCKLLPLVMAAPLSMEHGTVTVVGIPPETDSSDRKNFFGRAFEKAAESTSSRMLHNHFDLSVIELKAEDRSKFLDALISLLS

The targets below were run with CC1Cc2ccccc2N1C(=O)C1CCCN(C1)C(=O)CCl (mixture of isomers) [TRIM25 ligand 11 (diastereomer mixture)] (assay: probe-labelled cysteine peptide fold change vs DMSO (competition) (log2 fold change); higher = less target engagement (more negative = stronger competition)). Details: 10 µM; THP-1; incubation time: 4 h.
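Also: competitive chemoproteomic profiling in live THP-1 cells with an iodoacetamide desthiobiotin (IA-DTB) probe, comparing probe-labelled peptide intensities in compound-treated cells against DMSO-treated controls.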

Target	probe-labelled cysteine peptide fold change
CENPV_Q7Z7K6_152+154_HTGGCHCGAVR (UniProt Q7Z7K6)	0.131
CCT8_P50990_187_LIAQACVSIFPDSGHFNVDNIR (UniProt P50990)	-0.0566
CDPF1_Q6NVV7_7_ASHVECR (UniProt Q6NVV7)	-0.0171
CEP350_Q5VT06_1557_QESPSVPSCK (UniProt Q5VT06)	-0.19
CCT4_P50991_295_TGCNVLLIQK (UniProt P50991)	0.0565
CD40_P25942_116+119_GTSETDTICTCEEGWHCTSEACESCVLHR (UniProt P25942)	-0.211
CENPI_Q92674_332_EMSLSDCLNR (UniProt Q92674)	-0.0185
CDK5_Q00535_83_KLTLVFEFCDQDLKK (UniProt Q00535)	-0.0359
CEP152_O94986_791_TLDCGSQTDQVTTSDVISK (UniProt O94986)	-0.00933
CENPJ_Q9HC77_634_TNPADPISHCNR (UniProt Q9HC77)	0.418
CENPV_Q7Z7K6_216_AQHTFCK (UniProt Q7Z7K6)	0.0351
CCT4_P50991_221_LGGTIDDCELVEGLVLTQK (UniProt P50991)	0.0423
CENPF_P49454_752_CYQDLHAEYESLR (UniProt P49454)	-0.0639
CD33_P20138_325_LHGPTETSSCSGAAPTVEMDEELHYASLNFHGMNPSK (UniProt P20138)	-0.0389
CDR2_Q01850_432_EIFSCIK (UniProt Q01850)	-0.0611
CDC45_O75419_267_NEDEENTLSVDCTR (UniProt O75419)	0.077

2 entries drawn at random from the list so far:
Target	probe-labelled cysteine peptide fold change
CENPJ_Q9HC77_634_TNPADPISHCNR (UniProt Q9HC77)	0.418
CDR2_Q01850_432_EIFSCIK (UniProt Q01850)	-0.0611
